Assay results from PMC6570896.
No constants are given. Whether binding was seen depends on the method and setting. Binding seen in cells or lysates may run through a third protein. Binding can be weak; no strength is given. Where a sequence is shown, tags or fusion partners need not be part of it.

By UniProt entry, the sequences of proteins in these tests, tags left out. Where a name states a change or a piece, a line headed by the entry shows the natural chain unless it says otherwise.
UniProt Q8VXX4: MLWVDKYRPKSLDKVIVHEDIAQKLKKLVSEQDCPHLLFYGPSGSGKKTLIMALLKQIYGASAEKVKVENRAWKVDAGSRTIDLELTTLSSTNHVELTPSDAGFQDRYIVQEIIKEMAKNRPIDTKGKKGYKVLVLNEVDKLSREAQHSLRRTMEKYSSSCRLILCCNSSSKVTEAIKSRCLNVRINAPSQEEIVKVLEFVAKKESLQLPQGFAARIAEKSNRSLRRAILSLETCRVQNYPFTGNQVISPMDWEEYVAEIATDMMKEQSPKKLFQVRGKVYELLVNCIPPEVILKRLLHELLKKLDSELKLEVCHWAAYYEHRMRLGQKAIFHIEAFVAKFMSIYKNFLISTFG
UniProt Q9CAQ8: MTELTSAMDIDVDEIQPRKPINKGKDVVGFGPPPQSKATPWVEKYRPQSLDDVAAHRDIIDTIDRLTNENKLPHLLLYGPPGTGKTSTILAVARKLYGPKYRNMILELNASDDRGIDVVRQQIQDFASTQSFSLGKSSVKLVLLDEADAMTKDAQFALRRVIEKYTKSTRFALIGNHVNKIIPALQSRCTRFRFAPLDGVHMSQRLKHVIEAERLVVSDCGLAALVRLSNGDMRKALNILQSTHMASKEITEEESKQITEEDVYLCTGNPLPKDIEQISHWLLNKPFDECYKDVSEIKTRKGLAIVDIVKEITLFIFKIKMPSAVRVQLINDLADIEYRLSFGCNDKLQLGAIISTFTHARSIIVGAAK

B1: AtPCNA1 Δ1–120 (domain or fragment, UniProt Q9M7Q7 121-263)
chain: IDSEHLGIPDAEYHSIVRMPSNEFSRICKDLSSIGDTVVISVTKEGVKFSTAGDIGTANIVLRQNTTVDKPEDAIVIEMKEPVSLSFALRYMNSFTKATPLSDTVTISLSSELPVVVEYKVAEMGYIRYYLAPKIEEEEDTNP
B2: AtPCNA2 Δ1–120 (domain or fragment, UniProt Q9ZW35 121-264)
chain: IDSEHLGIPDAEYHSIVRMPSGEFSRICKDLSSIGDTVVISVTKEGVKFSTAGDIGTANIVLRQNTTVDKPEDAIVIEMNEPVSLSFALRYMNSFTKATPLSETVTISLSSELPVVVEYKVAEMGYIRYYLAPKIEEEEDTKPE
B3: AtPCNA1 Δ1–136 (domain or fragment, UniProt Q9M7Q7 137-263)
chain: VRMPSNEFSRICKDLSSIGDTVVISVTKEGVKFSTAGDIGTANIVLRQNTTVDKPEDAIVIEMKEPVSLSFALRYMNSFTKATPLSDTVTISLSSELPVVVEYKVAEMGYIRYYLAPKIEEEEDTNP
B4: AtPCNA1 Δ244–263 (domain or fragment, UniProt Q9M7Q7 1-243)
chain: MLELRLVQGSLLKKVLESIKDLVNDANFDCSSTGFSLQAMDSSHVALVSLLLRSEGFEHYRCDRNLSMGMNLGNMSKMLKCAGNDDIITIKADDGGDTVTFMFESPTQDKIADFEMKLMDIDSEHLGIPDAEYHSIVRMPSNEFSRICKDLSSIGDTVVISVTKEGVKFSTAGDIGTANIVLRQNTTVDKPEDAIVIEMKEPVSLSFALRYMNSFTKATPLSDTVTISLSSELPVVVEYKVAE
B5: AtPCNA1 Δ144–263 (domain or fragment, UniProt Q9M7Q7 1-143)
chain: MLELRLVQGSLLKKVLESIKDLVNDANFDCSSTGFSLQAMDSSHVALVSLLLRSEGFEHYRCDRNLSMGMNLGNMSKMLKCAGNDDIITIKADDGGDTVTFMFESPTQDKIADFEMKLMDIDSEHLGIPDAEYHSIVRMPSNE
B6: AtPCNA1 Δ128–263-YFP^N (domain or fragment, UniProt Q9M7Q7 1-127)
chain: MLELRLVQGSLLKKVLESIKDLVNDANFDCSSTGFSLQAMDSSHVALVSLLLRSEGFEHYRCDRNLSMGMNLGNMSKMLKCAGNDDIITIKADDGGDTVTFMFESPTQDKIADFEMKLMDIDSEHLG
B7: AtPCNA2 Δ1–136 (domain or fragment, UniProt Q9ZW35 137-264)
chain: VRMPSGEFSRICKDLSSIGDTVVISVTKEGVKFSTAGDIGTANIVLRQNTTVDKPEDAIVIEMNEPVSLSFALRYMNSFTKATPLSETVTISLSSELPVVVEYKVAEMGYIRYYLAPKIEEEEDTKPE
B8: AtPCNA2 Δ245–264 (domain or fragment, UniProt Q9ZW35 1-244)
chain: MLELRLVQGSLLKKVLEAVKDLVNDANFDCSTTGFSLQAMDSSHVALVSLLLRSEGFEHYRCDRNLSMGMNLGNMSKMLKCAGNDDIITIKADDGSDTVTFMFESPTQDKIADFEMKLMDIDSEHLGIPDAEYHSIVRMPSGEFSRICKDLSSIGDTVVISVTKEGVKFSTAGDIGTANIVLRQNTTVDKPEDAIVIEMNEPVSLSFALRYMNSFTKATPLSETVTISLSSELPVVVEYKVAEM
B9: AtPCNA2 Δ145–264 (domain or fragment, UniProt Q9ZW35 1-144)
chain: MLELRLVQGSLLKKVLEAVKDLVNDANFDCSTTGFSLQAMDSSHVALVSLLLRSEGFEHYRCDRNLSMGMNLGNMSKMLKCAGNDDIITIKADDGSDTVTFMFESPTQDKIADFEMKLMDIDSEHLGIPDAEYHSIVRMPSGEF

biological target: AtRFC5-YFP^N (Arabidopsis thaliana) (UniProt Q8VXX4); test: split reporter; BiFC: fusions to YFP^N (1-155 aa) and YFP^C (156-239 aa) co-expressed transiently in Nicotiana benthamiana leaf epidermal cells; YFP seen by confocal microscopy

| Binder | binding |
| --- | --- |
| B1 | binds |
| B2 | binds |
| B3 | no binding |
| B4 | no binding |
| B5 | no binding |
| B6 | no binding |
| B7 | no binding |
| B8 | no binding |
| B9 | no binding |

biological target: AtRFC3-YFP^N (Arabidopsis thaliana) (UniProt Q9CAQ8); test: as above

| Binder | binding |
| --- | --- |
| B1 | binds |
| B2 | binds |
| B3 | no binding |
| B4 | no binding |
| B5 | no binding |
| B6 | no binding |
| B7 | no binding |
| B8 | no binding |
| B9 | no binding |
